This experiment concerns the target T1, μ opioid receptor (Homo sapiens, UniProt P35372).
T1 construct: expressed in transfected cells
In words: FLIPR intracellular calcium signal test, HEK293-μ cells. It counts as cell-based. As for the experimental part: Fluorescence imaging plate reader FLIPR was used to detect changes of intracellular calcium signals. EC50 and IC50 values of the compounds were used as indicators to evaluate the activation or inhibition of the compounds on μ, κ, and δ opioid receptors.
Cell lines: HEK293-μ, HEK293-κ and HEK293-δ, stable-transfected cell lines HEK293-μ, HEK293-κ and HEK293-δ; Cell culture media (DMEM, Invitrogen #11965118, 10% fetal bovine serum Invitrogen #10099141, Geneticin Selective Antibiotic (G418) 300 μg/mL, Invitrogen #10131027, Blasticidin-S HCL 2 ug/mL Invitrogen #A1113902)
1. Cell Seeding (HEK293-μ, HEK293-κ and HEK293-δ Cells)
1) Preheating medium, pancreatic enzyme, and DPBS in a 37° C. water bath. Aspirating the culture medium from the cell culture flask and washing it with 10 mL DPBS; […]
3) Suspending the cells with 10-15 mL culture medium in each T150 cm^2 cell culture flask, centrifugating at 800 rpm for 5 minutes, and resuspending the cells with 10 mL culture medium, aspirating 1 mL cell resuspension to be counted with Vi-cell; […]
4) IC50 test: In FLIPR, successively placing 4× EC80 plate, cell plate, FLIPR tip, running the program and reading the fluorescence value. […]
Background: Calcium flux is commonly read through the fluorescence of an indicator in the cells.

By UniProt entry, the sequences of proteins in these tests, tags left out.
UniProt P35372, whole entry: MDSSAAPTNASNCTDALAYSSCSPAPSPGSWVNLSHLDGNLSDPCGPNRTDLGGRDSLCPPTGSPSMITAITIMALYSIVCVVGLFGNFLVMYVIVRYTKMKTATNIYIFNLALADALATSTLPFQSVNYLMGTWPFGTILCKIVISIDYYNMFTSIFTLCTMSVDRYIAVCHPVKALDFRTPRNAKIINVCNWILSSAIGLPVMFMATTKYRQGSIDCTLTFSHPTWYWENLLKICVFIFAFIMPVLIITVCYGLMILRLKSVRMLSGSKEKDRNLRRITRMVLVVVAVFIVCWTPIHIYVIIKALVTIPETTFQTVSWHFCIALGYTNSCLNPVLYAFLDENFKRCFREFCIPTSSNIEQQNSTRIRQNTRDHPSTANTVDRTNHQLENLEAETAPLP

The structures appear in SMILES notation.

For the molecule `CC12CCCCCC(Cc3ccc(O)cc31)C2N` (centres unmarked) [Compound 2, reference compound], the EC50 (EC50 (activation) test, read-out: Mu receptor EC50) is no more than 100 nM. Also, where the note is “IC50 (inhibition) test against EC80 of positive agonist, read-out: Mu receptor IC50”, the IC50 fell in the range of 100 to 1000 nM.

As a reminder, the EC50 is the concentration at which the effect is half-maximal. As a reminder, the IC50 is the concentration needed to halve the response being measured.
